The values below come from the supplement of paper PMC6411743.

Sequences of proteins named here, by UniProt entry; tags and fusion partners are left off. A change or cut given only in a name is not applied to a line headed by its entry.
UniProt Q86W74: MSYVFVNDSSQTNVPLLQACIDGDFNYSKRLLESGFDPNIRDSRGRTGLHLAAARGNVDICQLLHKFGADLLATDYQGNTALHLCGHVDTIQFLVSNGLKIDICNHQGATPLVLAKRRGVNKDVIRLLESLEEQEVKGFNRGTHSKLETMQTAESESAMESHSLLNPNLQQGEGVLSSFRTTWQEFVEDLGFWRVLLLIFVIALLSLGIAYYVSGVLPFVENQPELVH
UniProt Q99640: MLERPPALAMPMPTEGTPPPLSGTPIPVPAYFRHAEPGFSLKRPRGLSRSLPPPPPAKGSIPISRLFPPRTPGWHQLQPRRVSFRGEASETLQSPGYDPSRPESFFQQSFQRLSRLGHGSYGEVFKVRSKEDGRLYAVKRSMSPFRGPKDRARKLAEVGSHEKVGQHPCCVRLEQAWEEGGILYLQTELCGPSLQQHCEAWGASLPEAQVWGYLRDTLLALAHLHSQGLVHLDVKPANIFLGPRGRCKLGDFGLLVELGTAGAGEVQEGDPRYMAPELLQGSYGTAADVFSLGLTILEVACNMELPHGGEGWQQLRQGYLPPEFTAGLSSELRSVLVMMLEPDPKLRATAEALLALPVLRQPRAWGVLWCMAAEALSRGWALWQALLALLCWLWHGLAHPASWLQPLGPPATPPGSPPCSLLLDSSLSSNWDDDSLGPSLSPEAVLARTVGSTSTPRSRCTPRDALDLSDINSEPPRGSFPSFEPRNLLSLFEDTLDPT
UniProt Q5BJH7: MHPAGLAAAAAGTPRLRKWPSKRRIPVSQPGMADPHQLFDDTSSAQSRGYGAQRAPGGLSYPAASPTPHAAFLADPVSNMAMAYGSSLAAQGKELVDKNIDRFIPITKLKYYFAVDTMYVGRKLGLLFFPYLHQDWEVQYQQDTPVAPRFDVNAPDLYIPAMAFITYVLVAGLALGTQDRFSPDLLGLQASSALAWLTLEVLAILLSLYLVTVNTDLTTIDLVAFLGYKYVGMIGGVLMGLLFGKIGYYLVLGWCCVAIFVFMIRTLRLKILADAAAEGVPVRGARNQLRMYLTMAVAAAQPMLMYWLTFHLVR
UniProt Q9UKL0, whole entry: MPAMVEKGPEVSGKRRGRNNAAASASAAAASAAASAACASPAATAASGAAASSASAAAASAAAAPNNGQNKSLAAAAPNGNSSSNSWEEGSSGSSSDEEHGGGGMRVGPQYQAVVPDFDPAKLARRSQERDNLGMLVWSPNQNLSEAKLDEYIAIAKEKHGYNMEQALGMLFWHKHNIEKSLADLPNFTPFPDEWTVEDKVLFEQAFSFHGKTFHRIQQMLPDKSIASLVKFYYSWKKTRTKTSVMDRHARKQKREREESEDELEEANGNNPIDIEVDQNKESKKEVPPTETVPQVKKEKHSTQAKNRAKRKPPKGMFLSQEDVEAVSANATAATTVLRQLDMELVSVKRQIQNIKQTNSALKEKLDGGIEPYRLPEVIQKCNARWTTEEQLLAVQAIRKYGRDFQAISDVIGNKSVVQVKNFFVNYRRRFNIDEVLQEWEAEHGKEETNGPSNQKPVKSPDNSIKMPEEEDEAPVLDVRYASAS
UniProt Q9NUU7: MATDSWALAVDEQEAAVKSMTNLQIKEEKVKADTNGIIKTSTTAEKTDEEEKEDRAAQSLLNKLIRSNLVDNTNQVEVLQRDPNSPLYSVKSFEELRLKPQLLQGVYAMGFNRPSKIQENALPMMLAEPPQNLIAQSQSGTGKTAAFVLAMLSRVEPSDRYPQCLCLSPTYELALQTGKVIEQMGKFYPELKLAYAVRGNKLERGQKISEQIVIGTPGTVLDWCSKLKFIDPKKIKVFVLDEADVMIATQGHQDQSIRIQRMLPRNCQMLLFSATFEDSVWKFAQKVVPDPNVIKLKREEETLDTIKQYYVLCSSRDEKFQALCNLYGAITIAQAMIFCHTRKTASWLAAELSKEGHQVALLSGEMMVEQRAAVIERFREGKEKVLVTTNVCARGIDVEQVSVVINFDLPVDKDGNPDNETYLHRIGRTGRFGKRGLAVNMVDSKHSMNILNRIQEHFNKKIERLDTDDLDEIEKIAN
UniProt Q9BSR8: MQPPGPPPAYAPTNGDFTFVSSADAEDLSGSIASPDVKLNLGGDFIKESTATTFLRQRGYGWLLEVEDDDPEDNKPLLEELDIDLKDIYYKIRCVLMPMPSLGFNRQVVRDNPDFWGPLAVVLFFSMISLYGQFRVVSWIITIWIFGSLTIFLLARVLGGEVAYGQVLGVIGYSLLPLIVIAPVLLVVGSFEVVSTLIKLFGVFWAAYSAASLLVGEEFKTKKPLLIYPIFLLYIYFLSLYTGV
UniProt Q02241: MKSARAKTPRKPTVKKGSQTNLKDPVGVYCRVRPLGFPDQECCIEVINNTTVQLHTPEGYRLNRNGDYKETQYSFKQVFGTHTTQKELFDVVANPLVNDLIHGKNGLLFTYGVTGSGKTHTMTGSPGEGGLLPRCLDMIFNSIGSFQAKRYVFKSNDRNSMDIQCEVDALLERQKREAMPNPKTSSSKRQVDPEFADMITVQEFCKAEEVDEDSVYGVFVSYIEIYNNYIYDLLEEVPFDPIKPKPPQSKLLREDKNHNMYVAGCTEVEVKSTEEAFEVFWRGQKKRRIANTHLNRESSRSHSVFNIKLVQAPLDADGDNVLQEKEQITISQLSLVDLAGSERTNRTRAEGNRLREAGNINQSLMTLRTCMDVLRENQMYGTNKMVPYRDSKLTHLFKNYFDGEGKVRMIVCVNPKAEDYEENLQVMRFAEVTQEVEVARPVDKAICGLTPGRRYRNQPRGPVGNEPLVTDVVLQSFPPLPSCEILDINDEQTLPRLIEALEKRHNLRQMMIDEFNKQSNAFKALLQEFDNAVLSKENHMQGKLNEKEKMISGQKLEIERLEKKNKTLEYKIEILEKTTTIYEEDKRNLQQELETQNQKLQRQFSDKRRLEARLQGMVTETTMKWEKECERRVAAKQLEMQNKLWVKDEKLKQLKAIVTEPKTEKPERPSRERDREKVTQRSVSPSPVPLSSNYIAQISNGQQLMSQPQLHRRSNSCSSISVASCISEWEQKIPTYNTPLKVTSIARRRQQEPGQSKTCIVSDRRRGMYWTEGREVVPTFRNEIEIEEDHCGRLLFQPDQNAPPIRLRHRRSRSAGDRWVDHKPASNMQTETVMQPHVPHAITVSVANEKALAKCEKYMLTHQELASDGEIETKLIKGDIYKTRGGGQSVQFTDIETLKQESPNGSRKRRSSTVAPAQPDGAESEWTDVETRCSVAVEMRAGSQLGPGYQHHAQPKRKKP
UniProt Q9UK73, whole entry: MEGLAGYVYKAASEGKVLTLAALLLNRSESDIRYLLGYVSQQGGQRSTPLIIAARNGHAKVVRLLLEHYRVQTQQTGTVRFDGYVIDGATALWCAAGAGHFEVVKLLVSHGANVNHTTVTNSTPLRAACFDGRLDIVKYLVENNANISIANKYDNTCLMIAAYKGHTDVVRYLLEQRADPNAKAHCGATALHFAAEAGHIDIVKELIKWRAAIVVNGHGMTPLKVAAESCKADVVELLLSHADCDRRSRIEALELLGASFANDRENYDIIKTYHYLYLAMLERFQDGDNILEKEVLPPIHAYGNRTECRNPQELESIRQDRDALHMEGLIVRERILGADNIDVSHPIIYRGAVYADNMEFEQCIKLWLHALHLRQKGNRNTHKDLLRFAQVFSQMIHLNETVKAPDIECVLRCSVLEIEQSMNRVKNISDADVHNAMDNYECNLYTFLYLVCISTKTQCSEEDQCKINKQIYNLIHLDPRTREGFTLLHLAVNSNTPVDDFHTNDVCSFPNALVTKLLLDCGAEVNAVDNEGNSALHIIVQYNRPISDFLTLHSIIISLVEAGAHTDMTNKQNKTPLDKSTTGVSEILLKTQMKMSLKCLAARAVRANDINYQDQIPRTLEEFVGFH
UniProt Q07955, whole entry: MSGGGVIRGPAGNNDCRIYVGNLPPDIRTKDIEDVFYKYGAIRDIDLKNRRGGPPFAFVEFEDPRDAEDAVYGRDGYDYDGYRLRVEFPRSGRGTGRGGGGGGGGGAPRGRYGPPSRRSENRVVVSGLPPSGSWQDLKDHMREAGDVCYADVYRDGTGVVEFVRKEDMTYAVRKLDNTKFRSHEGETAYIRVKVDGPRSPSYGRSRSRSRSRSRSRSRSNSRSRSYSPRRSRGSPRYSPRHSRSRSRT
UniProt Q2VPK5: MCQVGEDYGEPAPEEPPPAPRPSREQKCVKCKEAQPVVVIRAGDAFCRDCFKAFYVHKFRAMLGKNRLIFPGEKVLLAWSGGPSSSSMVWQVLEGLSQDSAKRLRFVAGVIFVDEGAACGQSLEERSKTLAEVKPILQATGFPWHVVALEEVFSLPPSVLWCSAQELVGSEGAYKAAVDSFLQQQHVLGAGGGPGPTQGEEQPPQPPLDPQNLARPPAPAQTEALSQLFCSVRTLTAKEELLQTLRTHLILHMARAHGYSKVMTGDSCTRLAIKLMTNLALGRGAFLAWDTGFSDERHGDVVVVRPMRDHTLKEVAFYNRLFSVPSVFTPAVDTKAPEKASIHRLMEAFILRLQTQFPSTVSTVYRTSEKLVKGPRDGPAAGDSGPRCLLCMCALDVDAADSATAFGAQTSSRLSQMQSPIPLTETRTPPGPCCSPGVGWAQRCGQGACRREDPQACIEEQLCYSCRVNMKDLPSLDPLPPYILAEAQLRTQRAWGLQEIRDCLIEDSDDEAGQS
UniProt O43716: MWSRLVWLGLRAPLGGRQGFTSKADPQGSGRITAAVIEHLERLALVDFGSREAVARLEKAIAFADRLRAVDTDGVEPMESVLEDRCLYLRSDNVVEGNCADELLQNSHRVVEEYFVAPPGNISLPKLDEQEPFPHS
UniProt Q15831: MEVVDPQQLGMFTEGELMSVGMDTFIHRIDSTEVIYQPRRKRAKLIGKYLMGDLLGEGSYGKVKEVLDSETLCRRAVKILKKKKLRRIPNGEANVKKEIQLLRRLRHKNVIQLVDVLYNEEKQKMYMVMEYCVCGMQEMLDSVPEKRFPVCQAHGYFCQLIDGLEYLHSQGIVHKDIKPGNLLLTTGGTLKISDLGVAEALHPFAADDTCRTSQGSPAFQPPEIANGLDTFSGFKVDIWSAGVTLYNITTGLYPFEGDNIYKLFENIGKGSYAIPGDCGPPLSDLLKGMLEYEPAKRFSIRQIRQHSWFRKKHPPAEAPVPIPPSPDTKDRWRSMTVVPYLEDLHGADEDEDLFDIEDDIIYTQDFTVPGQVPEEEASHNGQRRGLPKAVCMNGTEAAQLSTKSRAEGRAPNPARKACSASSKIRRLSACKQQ
UniProt Q9UKM7: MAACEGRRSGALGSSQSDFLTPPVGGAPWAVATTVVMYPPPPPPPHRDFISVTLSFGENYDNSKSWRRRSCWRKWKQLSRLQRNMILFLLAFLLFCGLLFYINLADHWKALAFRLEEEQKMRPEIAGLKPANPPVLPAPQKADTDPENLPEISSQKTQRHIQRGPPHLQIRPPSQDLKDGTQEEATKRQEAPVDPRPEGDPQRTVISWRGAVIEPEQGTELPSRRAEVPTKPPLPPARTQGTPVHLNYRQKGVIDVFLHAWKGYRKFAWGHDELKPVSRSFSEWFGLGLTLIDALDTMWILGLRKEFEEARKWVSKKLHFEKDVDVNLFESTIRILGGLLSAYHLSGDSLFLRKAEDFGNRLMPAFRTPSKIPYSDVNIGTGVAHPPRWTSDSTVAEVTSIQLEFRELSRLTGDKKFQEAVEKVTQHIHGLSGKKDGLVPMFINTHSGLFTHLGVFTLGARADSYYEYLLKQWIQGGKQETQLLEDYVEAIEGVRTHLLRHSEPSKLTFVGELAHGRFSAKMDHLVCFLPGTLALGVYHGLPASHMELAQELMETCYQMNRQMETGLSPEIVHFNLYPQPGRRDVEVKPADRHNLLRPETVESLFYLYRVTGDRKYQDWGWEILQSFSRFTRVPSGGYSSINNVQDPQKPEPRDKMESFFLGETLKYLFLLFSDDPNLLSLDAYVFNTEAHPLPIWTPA
UniProt Q969U7: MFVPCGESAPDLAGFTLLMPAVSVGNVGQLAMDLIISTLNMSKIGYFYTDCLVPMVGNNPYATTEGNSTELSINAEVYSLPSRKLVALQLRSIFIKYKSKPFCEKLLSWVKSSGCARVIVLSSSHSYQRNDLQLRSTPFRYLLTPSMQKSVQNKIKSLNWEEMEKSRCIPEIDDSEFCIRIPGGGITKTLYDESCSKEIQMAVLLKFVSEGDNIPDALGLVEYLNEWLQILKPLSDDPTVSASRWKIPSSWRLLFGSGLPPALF

Compound in this experiment: Nc1nc2c(ncn2[C@@H]2O[C@H](COP(=O)(O)OP(=O)(O)OP(=O)(O)O)[C@@H](O)[C@H]2O)c(=O)[nH]1 [guanosine triphosphate]
Put plainly: NP40-soluble protein abundance relative to vehicle (solubility fold change) (ratio); higher = more soluble protein in presence of GTP. In outline:
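Jurkat crude lysate prepared with a Dounce homogeniser was treated at eight concentrations spanning 0.1 to 10 mM, 10 min at room temperature then 3 min at 37 °C. Solubilisation with 0.8% NP40 and benzonase and ultracentrifugation preceded TMT labelling of the supernatant for LC-MS/MS. Fold change against the detergent-processed vehicle was determined per replicate from vsn-normalised intensities, across three independent experiments.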

± gives the standard deviation of the averaged measurements. The list shows a part of the results.

In the case of “J3KP26 and related entries (UniProt Q86W74)”, the NP40-soluble protein abundance reads like this: (concentration: 0.1mM) 1.01 ± 0.15; (concentration: 0.5mM) 0.934 ± 0.054; (concentration: 1mM) 0.965 ± 0.092; (concentration: 2mM) 0.962 ± 0.042; (concentration: 4mM) 0.96 ± 0.034; (concentration: 6mM) 0.951 ± 0.065. Also, the NP40-soluble protein abundance (concentration: 8mM) was 0.89 ± 0.038 and the NP40-soluble protein abundance (concentration: 10mM) was found to be 0.94551 ± 0.00081.

Take “I3L3P0 and related entries (UniProt Q99640)”: the NP40-soluble protein abundance was found to be 1.07 ± 0.041 (concentration: 0.1mM); 1.03 ± 0.032 (concentration: 0.5mM); 1.08 ± 0.049 (concentration: 1mM); 1.02 ± 0.051 (concentration: 2mM); 0.953 ± 0.082 (concentration: 4mM); 0.973 ± 0.032 (concentration: 6mM). The NP40-soluble protein abundance stood at 1.03 ± 0.023 (concentration: 8mM) and 0.957 ± 0.045 (concentration: 10mM).

Consider “K7ERQ0 and related entries (UniProt Q5BJH7)”, for which the NP40-soluble protein abundance was 1.05 ± 0.24 (concentration: 0.1mM); 1.08 ± 0.037 (concentration: 0.5mM); 1.02 ± 0.15 (concentration: 1mM); 1.03 ± 0.022 (concentration: 2mM); 1.08 ± 0.1 (concentration: 4mM); 0.9931 ± 0.0031 (concentration: 6mM). In addition, the NP40-soluble protein abundance was determined as 0.915 ± 0.025 (concentration: 8mM) and 0.968 ± 0.11 (concentration: 10mM).

Consider “J3KN32 and related entries (UniProt Q9UKL0)”, for which the NP40-soluble protein abundance is, setting by setting: (concentration: 0.1mM) 0.979 ± 0.05; (concentration: 0.5mM) 0.961 ± 0.034; (concentration: 1mM) 1.05 ± 0.033; (concentration: 2mM) 1.02 ± 0.062; (concentration: 4mM) 1.08 ± 0.1; (concentration: 6mM) 1.1 ± 0.083. Besides, the NP40-soluble protein abundance (concentration: 8mM) came to 1.12 ± 0.1 and the NP40-soluble protein abundance (concentration: 10mM) was 1.1 ± 0.12.

Turning to “I3L0H8 and related entries (UniProt Q9NUU7)”, the NP40-soluble protein abundance (concentration: 0.1mM) was determined as 0.998 ± 0.056; the NP40-soluble protein abundance (concentration: 0.5mM) came out at 1 ± 0.03; the NP40-soluble protein abundance (concentration: 1mM) was 0.981 ± 0.048; the NP40-soluble protein abundance (concentration: 2mM) was 0.936 ± 0.077; the NP40-soluble protein abundance (concentration: 4mM) turned out to be 0.94 ± 0.075; the NP40-soluble protein abundance (concentration: 6mM) turned out to be 0.926 ± 0.061. The NP40-soluble protein abundance (concentration: 8mM) stood at 0.949 ± 0.075 and the NP40-soluble protein abundance (concentration: 10mM) came to 0.902 ± 0.072.

As for “H7C0D5 and related entries (UniProt Q9BSR8)”, the NP40-soluble protein abundance (concentration: 0.1mM) amounted to 1.02 ± 0.04; the NP40-soluble protein abundance (concentration: 0.5mM) is 0.948 ± 0.1; the NP40-soluble protein abundance (concentration: 1mM) came to 0.924 ± 0.07; the NP40-soluble protein abundance (concentration: 2mM) was determined as 0.878 ± 0.083; the NP40-soluble protein abundance (concentration: 4mM) turned out to be 0.984 ± 0.089; the NP40-soluble protein abundance (concentration: 6mM) stood at 0.874 ± 0.049. Moreover, the NP40-soluble protein abundance reads like this: (concentration: 8mM) 0.951 ± 0.028; (concentration: 10mM) 0.807 ± 0.043.

For “H7BYN4 and related entries (UniProt Q02241)”, the NP40-soluble protein abundance reads like this: (concentration: 0.1mM) 1.1 ± 0.048; (concentration: 0.5mM) 1.03 ± 0.036; (concentration: 1mM) 1.0707 ± 0.00082; (concentration: 2mM) 1.09 ± 0.021; (concentration: 4mM) 1.114 ± 0.0076; (concentration: 6mM) 1.13 ± 0.046. Also, the NP40-soluble protein abundance is, setting by setting: (concentration: 8mM) 1.12 ± 0.084; (concentration: 10mM) 1.09 ± 0.041.

As to “H3BT12 and related entries (UniProt Q9UK73)”, the NP40-soluble protein abundance (concentration: 0.1mM) came out at 1.07 ± 0.2; the NP40-soluble protein abundance (concentration: 0.5mM) amounted to 1.06 ± 0.097; the NP40-soluble protein abundance (concentration: 1mM) was 1.13 ± 0.058; the NP40-soluble protein abundance (concentration: 2mM) amounted to 1.11 ± 0.15; the NP40-soluble protein abundance (concentration: 4mM) was determined as 1.04 ± 0.16; the NP40-soluble protein abundance (concentration: 6mM) stood at 1.07 ± 0.26. Further, the NP40-soluble protein abundance was determined as 1.06 ± 0.23 (concentration: 8mM) and 1.03 ± 0.28 (concentration: 10mM).

On to “J3KTL2 and related entries (UniProt Q07955)”, for which the NP40-soluble protein abundance by setting is: (concentration: 0.1mM) 0.955 ± 0.057; (concentration: 0.5mM) 1.09 ± 0.095; (concentration: 1mM) 1.26 ± 0.046; (concentration: 2mM) 1.24 ± 0.097; (concentration: 4mM) 1.25 ± 0.038; (concentration: 6mM) 1.38 ± 0.044. Moreover, the NP40-soluble protein abundance is 1.53 ± 0.14 (concentration: 8mM) and 1.53 ± 0.16 (concentration: 10mM).

Take “H3BSW6 and related entries (UniProt Q2VPK5)”: the NP40-soluble protein abundance (concentration: 0.1mM) was found to be 1.03 ± 0.014; the NP40-soluble protein abundance (concentration: 0.5mM) worked out at 1.12 ± 0.078; the NP40-soluble protein abundance (concentration: 1mM) was 0.96 ± 0.0096; the NP40-soluble protein abundance (concentration: 2mM) came to 0.987 ± 0.12; the NP40-soluble protein abundance (concentration: 4mM) worked out at 1.03 ± 0.2; the NP40-soluble protein abundance (concentration: 6mM) is 1.02 ± 0.11. The NP40-soluble protein abundance was determined as 0.907 ± 0.019 (concentration: 8mM) and 0.958 ± 0.12 (concentration: 10mM).

Turning to “H0YIV9 and related entries (UniProt O43716+H0YIV9)”, the NP40-soluble protein abundance runs as follows: (concentration: 0.1mM) 0.985 ± 0.12; (concentration: 0.5mM) 0.921 ± 0.033; (concentration: 1mM) 1.12 ± 0.047; (concentration: 2mM) 1.05 ± 0.023; (concentration: 4mM) 1.03 ± 0.042; (concentration: 6mM) 1.05 ± 0.03. The NP40-soluble protein abundance (concentration: 8mM) was determined as 1.03 ± 0.024 and the NP40-soluble protein abundance (concentration: 10mM) was 1.08 ± 0.022.

Regarding “H0YHA7 and related entries (UniProt Q07020)”, the NP40-soluble protein abundance stood at 1 ± 0.045 (concentration: 0.1mM); 1.03 ± 0.058 (concentration: 0.5mM); 1.06 ± 0.14 (concentration: 1mM); 1.01 ± 0.19 (concentration: 2mM); 0.906 ± 0.2 (concentration: 4mM); 0.811 ± 0.19 (concentration: 6mM). The NP40-soluble protein abundance runs as follows: (concentration: 8mM) 0.637 ± 0.096; (concentration: 10mM) 0.839 ± 0.2.

On to “H3BQW8 and related entries (UniProt Q16775)”, for which the NP40-soluble protein abundance by setting is: (concentration: 0.1mM) 0.978 ± 0.026; (concentration: 0.5mM) 0.948 ± 0.017; (concentration: 1mM) 0.916 ± 0.046; (concentration: 2mM) 0.901 ± 0.049; (concentration: 4mM) 0.898 ± 0.071; (concentration: 6mM) 0.864 ± 0.046. For the same target, the NP40-soluble protein abundance amounted to 0.861 ± 0.078 (concentration: 8mM) and 0.836 ± 0.11 (concentration: 10mM).

Take “K7EP59 and related entries (UniProt Q15831)”: the NP40-soluble protein abundance reads like this: (concentration: 0.1mM) 1.071 ± 0.0048; (concentration: 0.5mM) 1.1 ± 0.027; (concentration: 1mM) 0.965 ± 0.024; (concentration: 2mM) 0.946 ± 0.015; (concentration: 4mM) 0.944 ± 0.092; (concentration: 6mM) 0.932 ± 0.013. Further, the NP40-soluble protein abundance reads like this: (concentration: 8mM) 0.905 ± 0.12; (concentration: 10mM) 0.914 ± 0.051.

With “H0YG20 and related entries (UniProt Q9UKM7)”, the NP40-soluble protein abundance is 0.975 ± 0.055 (concentration: 0.1mM); 0.954 ± 0.05 (concentration: 0.5mM); 0.823 ± 0.037 (concentration: 1mM); 0.93 ± 0.087 (concentration: 2mM); 0.972 ± 0.071 (concentration: 4mM); 0.876 ± 0.058 (concentration: 6mM). The NP40-soluble protein abundance amounted to 0.874 ± 0.035 (concentration: 8mM) and 0.958 ± 0.048 (concentration: 10mM).

Turning to “K7ENR6 and related entries (UniProt Q969U7)”, the NP40-soluble protein abundance worked out at 1 ± 0.083 (concentration: 0.1mM); 1.01 ± 0.056 (concentration: 0.5mM); 1.02 ± 0.06 (concentration: 1mM); 0.984 ± 0.053 (concentration: 2mM); 0.974 ± 0.034 (concentration: 4mM); 1 ± 0.033 (concentration: 6mM). Also, the NP40-soluble protein abundance is, setting by setting: (concentration: 8mM) 0.973 ± 0.092; (concentration: 10mM) 0.946 ± 0.042.
